Laboratory results as given in the supplement of paper PMC6411743.
± gives the standard deviation of the averaged measurements. This is one part of the list.

Protein sequences, listed by entry. Tags and fused reporters are not part of them. Lines headed by an entry give the natural chain unless they say otherwise; changes in a name come on top.
UniProt Q9NX07: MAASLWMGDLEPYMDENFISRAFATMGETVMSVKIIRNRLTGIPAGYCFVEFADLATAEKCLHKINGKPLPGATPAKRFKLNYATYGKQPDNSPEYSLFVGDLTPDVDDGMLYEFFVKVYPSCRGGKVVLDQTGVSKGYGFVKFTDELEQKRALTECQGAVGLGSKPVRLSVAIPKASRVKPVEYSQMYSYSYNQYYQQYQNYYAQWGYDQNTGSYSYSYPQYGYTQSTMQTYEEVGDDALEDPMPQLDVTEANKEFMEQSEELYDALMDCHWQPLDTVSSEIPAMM
UniProt Q9NVN8: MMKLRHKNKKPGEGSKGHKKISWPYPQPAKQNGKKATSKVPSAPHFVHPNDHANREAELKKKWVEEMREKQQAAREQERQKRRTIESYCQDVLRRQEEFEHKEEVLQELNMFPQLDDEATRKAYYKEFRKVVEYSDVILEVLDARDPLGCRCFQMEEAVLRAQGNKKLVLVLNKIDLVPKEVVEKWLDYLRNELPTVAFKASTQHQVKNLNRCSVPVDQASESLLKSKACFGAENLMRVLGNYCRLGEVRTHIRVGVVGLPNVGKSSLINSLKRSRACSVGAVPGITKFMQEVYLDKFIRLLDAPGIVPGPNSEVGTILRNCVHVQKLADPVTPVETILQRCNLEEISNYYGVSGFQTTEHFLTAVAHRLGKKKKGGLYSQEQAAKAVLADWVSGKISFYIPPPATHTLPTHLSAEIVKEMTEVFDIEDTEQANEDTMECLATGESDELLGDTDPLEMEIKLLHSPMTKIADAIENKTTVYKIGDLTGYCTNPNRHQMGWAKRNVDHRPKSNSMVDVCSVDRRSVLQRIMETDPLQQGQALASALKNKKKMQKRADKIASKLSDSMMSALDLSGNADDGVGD
UniProt Q9UKV8, whole entry: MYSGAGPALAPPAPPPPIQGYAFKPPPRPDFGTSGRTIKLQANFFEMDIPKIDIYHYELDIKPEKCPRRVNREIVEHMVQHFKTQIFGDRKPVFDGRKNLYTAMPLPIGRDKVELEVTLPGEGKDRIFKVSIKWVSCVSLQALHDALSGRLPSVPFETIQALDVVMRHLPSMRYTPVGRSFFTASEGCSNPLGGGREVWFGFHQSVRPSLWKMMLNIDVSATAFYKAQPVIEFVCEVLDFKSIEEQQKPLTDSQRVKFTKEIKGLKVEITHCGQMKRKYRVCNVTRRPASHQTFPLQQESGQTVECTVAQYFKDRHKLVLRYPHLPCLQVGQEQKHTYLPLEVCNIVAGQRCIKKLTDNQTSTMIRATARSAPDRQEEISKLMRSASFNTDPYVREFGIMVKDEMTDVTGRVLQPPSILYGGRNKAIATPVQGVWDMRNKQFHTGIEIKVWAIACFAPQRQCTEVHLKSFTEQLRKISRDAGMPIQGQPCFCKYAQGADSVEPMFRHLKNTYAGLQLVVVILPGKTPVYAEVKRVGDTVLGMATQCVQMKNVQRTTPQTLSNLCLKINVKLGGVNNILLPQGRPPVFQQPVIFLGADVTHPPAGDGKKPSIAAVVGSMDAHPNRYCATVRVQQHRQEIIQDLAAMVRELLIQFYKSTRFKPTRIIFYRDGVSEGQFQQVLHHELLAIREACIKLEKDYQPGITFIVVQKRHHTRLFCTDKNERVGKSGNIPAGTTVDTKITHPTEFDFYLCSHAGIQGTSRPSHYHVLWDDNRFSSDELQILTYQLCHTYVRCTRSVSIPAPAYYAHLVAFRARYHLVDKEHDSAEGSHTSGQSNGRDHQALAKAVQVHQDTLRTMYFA
UniProt Q9NZL9, whole entry: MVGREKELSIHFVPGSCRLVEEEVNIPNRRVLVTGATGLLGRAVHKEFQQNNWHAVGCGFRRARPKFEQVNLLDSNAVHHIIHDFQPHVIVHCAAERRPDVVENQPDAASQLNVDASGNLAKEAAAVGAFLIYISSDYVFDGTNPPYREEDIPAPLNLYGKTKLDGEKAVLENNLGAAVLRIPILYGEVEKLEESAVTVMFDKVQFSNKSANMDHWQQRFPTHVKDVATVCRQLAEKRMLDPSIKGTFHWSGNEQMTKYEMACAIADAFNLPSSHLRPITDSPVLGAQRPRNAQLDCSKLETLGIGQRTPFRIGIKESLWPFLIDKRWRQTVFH
UniProt Q9NYR9: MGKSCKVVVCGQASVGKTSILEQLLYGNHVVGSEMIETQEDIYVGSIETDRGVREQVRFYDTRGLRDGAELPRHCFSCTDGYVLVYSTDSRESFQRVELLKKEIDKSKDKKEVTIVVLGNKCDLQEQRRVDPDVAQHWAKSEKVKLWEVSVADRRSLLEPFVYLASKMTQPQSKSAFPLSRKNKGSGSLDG
UniProt Q9P2J5: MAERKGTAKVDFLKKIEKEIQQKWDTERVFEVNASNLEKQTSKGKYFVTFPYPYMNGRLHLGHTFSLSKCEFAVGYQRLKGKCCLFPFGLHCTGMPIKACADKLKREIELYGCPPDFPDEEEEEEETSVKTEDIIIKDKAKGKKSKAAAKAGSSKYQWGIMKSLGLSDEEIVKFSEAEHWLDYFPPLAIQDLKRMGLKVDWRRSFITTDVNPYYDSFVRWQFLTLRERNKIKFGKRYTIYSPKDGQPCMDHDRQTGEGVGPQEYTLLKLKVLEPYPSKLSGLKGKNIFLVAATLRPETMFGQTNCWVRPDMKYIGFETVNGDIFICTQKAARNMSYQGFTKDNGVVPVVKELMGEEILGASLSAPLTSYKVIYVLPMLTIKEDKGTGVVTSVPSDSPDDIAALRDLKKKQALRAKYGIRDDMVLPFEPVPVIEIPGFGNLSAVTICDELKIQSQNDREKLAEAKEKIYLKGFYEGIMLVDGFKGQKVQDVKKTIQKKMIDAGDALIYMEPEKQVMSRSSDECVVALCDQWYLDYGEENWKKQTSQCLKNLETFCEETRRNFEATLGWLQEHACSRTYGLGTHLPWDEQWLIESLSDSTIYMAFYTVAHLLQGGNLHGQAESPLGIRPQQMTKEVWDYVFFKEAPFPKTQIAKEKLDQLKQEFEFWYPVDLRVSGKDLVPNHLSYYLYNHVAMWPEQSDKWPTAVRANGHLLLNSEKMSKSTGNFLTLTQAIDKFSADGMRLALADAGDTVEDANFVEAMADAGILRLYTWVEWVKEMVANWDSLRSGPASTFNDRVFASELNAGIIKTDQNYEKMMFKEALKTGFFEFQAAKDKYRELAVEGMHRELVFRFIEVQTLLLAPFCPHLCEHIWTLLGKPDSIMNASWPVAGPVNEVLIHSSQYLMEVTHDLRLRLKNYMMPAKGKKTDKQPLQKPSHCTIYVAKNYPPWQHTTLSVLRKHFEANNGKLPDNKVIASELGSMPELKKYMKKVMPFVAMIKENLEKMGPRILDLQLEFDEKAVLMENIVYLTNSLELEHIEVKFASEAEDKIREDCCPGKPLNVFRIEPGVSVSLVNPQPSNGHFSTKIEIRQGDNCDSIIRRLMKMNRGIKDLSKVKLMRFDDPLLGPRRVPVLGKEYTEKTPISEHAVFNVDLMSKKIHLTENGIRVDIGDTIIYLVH
UniProt Q9UI09, whole entry: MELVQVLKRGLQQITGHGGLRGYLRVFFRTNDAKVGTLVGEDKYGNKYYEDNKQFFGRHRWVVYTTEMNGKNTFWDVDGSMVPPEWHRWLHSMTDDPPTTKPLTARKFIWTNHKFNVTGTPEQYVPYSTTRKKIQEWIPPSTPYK
UniProt Q9P107: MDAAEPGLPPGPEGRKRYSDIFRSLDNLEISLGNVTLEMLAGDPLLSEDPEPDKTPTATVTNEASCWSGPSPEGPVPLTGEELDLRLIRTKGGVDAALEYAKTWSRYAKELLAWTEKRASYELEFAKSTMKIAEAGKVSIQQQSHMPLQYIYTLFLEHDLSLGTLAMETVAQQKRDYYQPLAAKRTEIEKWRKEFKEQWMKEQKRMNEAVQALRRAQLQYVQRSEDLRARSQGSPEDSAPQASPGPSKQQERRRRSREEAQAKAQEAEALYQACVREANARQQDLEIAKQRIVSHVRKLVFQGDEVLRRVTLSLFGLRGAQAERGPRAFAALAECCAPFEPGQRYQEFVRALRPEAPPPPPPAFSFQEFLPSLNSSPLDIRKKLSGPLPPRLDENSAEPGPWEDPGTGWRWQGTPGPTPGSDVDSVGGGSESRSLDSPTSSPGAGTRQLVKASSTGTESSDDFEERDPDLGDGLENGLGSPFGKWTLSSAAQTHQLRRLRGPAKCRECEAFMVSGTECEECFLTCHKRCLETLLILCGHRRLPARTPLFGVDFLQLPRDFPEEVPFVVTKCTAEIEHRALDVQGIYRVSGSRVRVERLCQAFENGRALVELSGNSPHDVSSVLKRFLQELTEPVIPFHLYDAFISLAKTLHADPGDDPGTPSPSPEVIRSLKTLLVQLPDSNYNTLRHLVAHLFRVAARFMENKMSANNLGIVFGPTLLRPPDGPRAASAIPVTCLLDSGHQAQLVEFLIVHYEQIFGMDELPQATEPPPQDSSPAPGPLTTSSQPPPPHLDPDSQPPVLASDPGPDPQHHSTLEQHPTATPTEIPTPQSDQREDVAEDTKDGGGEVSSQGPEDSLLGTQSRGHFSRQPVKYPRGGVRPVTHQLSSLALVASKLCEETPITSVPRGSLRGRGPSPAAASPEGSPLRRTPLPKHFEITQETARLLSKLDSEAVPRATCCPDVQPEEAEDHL
UniProt Q9NX14, whole entry: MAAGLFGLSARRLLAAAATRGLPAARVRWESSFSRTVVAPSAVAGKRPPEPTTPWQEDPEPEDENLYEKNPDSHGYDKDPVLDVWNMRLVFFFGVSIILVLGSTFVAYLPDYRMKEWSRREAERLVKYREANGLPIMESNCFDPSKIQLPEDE
UniProt Q9UKA4: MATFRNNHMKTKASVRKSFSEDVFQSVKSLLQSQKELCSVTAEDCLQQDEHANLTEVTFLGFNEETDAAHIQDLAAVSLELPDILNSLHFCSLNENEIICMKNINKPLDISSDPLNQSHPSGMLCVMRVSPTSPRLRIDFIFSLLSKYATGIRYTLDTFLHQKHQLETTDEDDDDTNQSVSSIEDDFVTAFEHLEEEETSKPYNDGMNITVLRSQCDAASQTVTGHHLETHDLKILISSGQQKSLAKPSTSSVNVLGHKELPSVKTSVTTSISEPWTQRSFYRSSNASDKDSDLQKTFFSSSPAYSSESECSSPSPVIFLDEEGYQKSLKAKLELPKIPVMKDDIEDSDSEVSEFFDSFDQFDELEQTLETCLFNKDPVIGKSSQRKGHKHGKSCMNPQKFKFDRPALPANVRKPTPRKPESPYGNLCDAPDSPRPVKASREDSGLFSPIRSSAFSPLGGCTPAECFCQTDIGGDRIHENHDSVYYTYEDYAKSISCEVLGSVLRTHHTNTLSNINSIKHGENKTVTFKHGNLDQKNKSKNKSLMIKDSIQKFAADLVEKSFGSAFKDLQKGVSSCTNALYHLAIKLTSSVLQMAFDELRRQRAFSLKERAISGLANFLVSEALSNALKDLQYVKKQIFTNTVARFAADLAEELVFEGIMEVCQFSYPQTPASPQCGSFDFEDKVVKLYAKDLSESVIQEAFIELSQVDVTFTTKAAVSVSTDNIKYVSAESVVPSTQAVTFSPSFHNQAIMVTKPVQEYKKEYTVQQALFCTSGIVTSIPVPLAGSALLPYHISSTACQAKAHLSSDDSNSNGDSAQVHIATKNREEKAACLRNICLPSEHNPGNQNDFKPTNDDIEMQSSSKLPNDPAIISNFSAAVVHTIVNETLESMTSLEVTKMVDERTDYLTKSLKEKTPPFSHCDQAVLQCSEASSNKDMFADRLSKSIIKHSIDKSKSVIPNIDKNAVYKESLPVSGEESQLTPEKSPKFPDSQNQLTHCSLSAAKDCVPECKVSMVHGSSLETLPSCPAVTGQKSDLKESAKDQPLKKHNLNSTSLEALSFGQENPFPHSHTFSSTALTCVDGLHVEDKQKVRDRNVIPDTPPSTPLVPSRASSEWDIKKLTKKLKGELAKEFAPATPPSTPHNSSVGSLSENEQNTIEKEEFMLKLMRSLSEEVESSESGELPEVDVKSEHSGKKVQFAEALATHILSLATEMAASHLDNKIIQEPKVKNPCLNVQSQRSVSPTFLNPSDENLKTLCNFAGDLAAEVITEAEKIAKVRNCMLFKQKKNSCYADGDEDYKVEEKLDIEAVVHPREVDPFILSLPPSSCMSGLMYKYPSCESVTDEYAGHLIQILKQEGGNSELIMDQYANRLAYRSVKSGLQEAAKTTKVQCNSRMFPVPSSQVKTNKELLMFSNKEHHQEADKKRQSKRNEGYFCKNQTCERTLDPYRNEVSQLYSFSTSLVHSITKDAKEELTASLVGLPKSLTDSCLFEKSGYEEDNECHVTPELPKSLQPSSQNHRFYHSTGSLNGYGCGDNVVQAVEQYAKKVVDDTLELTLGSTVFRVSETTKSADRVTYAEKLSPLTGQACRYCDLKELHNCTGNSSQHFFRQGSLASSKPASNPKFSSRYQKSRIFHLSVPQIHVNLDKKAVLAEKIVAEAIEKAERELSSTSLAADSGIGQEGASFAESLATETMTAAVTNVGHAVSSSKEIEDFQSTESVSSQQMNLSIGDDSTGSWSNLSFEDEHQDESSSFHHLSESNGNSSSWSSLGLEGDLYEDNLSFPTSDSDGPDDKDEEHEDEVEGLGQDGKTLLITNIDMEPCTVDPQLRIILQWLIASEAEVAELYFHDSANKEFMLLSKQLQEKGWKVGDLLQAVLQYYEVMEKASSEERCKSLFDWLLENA

Compound: Nc1nc2c(ncn2[C@@H]2O[C@H](COP(=O)(O)OP(=O)(O)OP(=O)(O)O)[C@@H](O)[C@H]2O)c(=O)[nH]1 [guanosine triphosphate]
Experiment: NP40-soluble protein abundance relative to vehicle (solubility fold change) (ratio); higher = more soluble protein in presence of GTP
Summary of the method: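 Each value is a fold change relative to the detergent-processed vehicle, calculated per replicate from vsn-normalised intensities. Jurkat crude lysate received eight concentrations (0.1 to 10 mM) for 10 min at room temperature and 3 min at 37 °C, then was solubilised in 0.8% NP40 with benzonase (60 min, 4 °C). The ultracentrifuged supernatant was TMT-labelled and run by LC-MS/MS in three independent experiments.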

Target	NP40-soluble protein abundance (concentration: 0.1mM)	NP40-soluble protein abundance (concentration: 0.5mM)	NP40-soluble protein abundance (concentration: 1mM)	NP40-soluble protein abundance (concentration: 2mM)	NP40-soluble protein abundance (concentration: 4mM)	NP40-soluble protein abundance (concentration: 6mM)	NP40-soluble protein abundance (concentration: 8mM)	NP40-soluble protein abundance (concentration: 10mM)
VPS18 (UniProt Q9P253)	1.09 ± 0.028	1.13 ± 0.055	1.05 ± 0.039	1.06 ± 0.08	1.1 ± 0.059	1.05 ± 0.05	1.0269 ± 0.00089	1.03 ± 0.065
CWC15 (UniProt Q9P013)	0.983 ± 0.034	0.994 ± 0.024	1.06 ± 0.032	1.08 ± 0.018	1.09 ± 0.016	1.14 ± 0.052	1.25 ± 0.022	1.34 ± 0.081
TRNAU1AP (UniProt Q9NX07)	0.976 ± 0.035	0.959 ± 0.022	0.926 ± 0.024	0.928 ± 0.026	0.928 ± 0.025	0.898 ± 0.024	0.937 ± 0.038	0.911 ± 0.027
RBM28 (UniProt Q9NW13)	0.978 ± 0.049	1.01 ± 0.058	1.04 ± 0.062	1.06 ± 0.061	1.1 ± 0.068	1.16 ± 0.059	1.21 ± 0.082	1.27 ± 0.11
ZNFX1 (UniProt Q9P2E3)	1.09 ± 0.075	1.137 ± 0.0073	1.15 ± 0.018	1.1 ± 0.13	1.06 ± 0.041	1.13 ± 0.014	1.15 ± 0.012	1.05 ± 0.096
VPS51 (UniProt Q9UID3)	1.09 ± 0.031	1.07 ± 0.026	0.987 ± 0.087	1.06 ± 0.041	1.03 ± 0.075	0.998 ± 0.046	0.969 ± 0.032	0.923 ± 0.04
HECTD1 (UniProt Q9ULT8)	1.04 ± 0.011	1.03 ± 0.024	1.02 ± 0.031	1.02 ± 0.042	1.02 ± 0.019	0.994 ± 0.027	0.987 ± 0.04	0.985 ± 0.031
UniProt Q9NVI7-2	1.07 ± 0.062	1.16 ± 0.085	1.34 ± 0.083	1.56 ± 0.18	1.79 ± 0.32	1.9 ± 0.29	2.04 ± 0.29	2.11 ± 0.29
UniProt Q9P2K3 and related entries	1.01 ± 0.019	1.018 ± 0.01	1.08 ± 0.09	1.09 ± 0.077	1.1 ± 0.1	1.14 ± 0.1	1.19 ± 0.16	1.2 ± 0.18
UniProt Q9NV70 and related entries	1.05 ± 0.058	1.08 ± 0.025	1 ± 0.043	1.01 ± 0.021	1.02 ± 0.054	1.01 ± 0.053	1.01 ± 0.039	0.994 ± 0.025
UniProt Q9UIA9 and related entries	0.979 ± 0.035	0.971 ± 0.038	0.908 ± 0.034	0.93 ± 0.031	0.951 ± 0.032	0.898 ± 0.016	0.88 ± 0.036	0.881 ± 0.033
GNL3L (UniProt Q9NVN8)	1.22 ± 0.15	1.18 ± 0.13	1.15 ± 0.1	1.26 ± 0.21	1.33 ± 0.21	1.35 ± 0.27	1.34 ± 0.27	1.29 ± 0.12
UniProt Q9NWU1 and related entries	0.981 ± 0.12	1.06 ± 0.049	0.982 ± 0.059	0.96 ± 0.1	0.924 ± 0.14	0.985 ± 0.09	0.942 ± 0.038	0.907 ± 0.058
UniProt Q9UIC8 and related entries	0.978 ± 0.059	1.01 ± 0.049	0.88 ± 0.064	0.891 ± 0.058	0.875 ± 0.084	0.885 ± 0.064	0.818 ± 0.067	0.856 ± 0.11
ABCF3 (UniProt Q9NUQ8)	1.06 ± 0.08	1.05 ± 0.07	0.971 ± 0.033	0.966 ± 0.025	0.957 ± 0.036	0.934 ± 0.035	0.936 ± 0.051	0.919 ± 0.043
UniProt Q9NV88 and related entries	1.11 ± 0.074	1.1 ± 0.03	1.036 ± 0.0055	1.06 ± 0.055	1.12 ± 0.11	1.08 ± 0.074	1.13 ± 0.096	1.09 ± 0.054
UniProt Q9ULP9 and related entries	1.08 ± 0.031	1.04 ± 0.068	1.02 ± 0.021	1.03 ± 0.063	1.01 ± 0.096	0.953 ± 0.078	0.985 ± 0.099	0.974 ± 0.042
DDX18 (UniProt Q9NVP1)	1.084 ± 0.0038	1.11 ± 0.024	1.08 ± 0.021	1.2 ± 0.071	1.42 ± 0.057	1.55 ± 0.061	1.69 ± 0.043	1.94 ± 0.066
ENOPH1 (UniProt Q9UHY7)	0.969 ± 0.037	0.948 ± 0.044	0.952 ± 0.099	0.91 ± 0.084	0.866 ± 0.1	0.901 ± 0.1	0.856 ± 0.1	0.857 ± 0.1
MBD2 (UniProt Q9UBB5)	0.97 ± 0.01	0.963 ± 0.039	1.15 ± 0.1	1.23 ± 0.12	1.27 ± 0.14	1.28 ± 0.14	1.34 ± 0.15	1.41 ± 0.22
UniProt Q9UKV8	1.08 ± 0.065	1.14 ± 0.053	1.06 ± 0.045	1.11 ± 0.053	1.1 ± 0.026	1.07 ± 0.078	1.07 ± 0.057	1.05 ± 0.061
TBK1 (UniProt Q9UHD2)	1.06 ± 0.065	1.03 ± 0.061	1.01 ± 0.1	0.984 ± 0.058	0.988 ± 0.053	0.959 ± 0.07	0.965 ± 0.041	0.898 ± 0.023
UniProt Q9NYV4 and related entries	1.03 ± 0.08	1.13 ± 0.066	1.17 ± 0.03	1.18 ± 0.11	1.21 ± 0.089	1.26 ± 0.13	1.31 ± 0.12	1.32 ± 0.2
UniProt Q9NZL9 and related entries	1.02 ± 0.049	0.98 ± 0.052	0.959 ± 0.041	0.937 ± 0.041	0.929 ± 0.03	0.918 ± 0.031	0.922 ± 0.051	0.904 ± 0.049
UniProt Q9NYR9 and related entries	1.09 ± 0.056	1.1 ± 0.044	1.1 ± 0.047	1.11 ± 0.06	1.14 ± 0.045	1.11 ± 0.076	1.13 ± 0.071	1.09 ± 0.093

Fetched one by one from the list above (3):
Target	NP40-soluble protein abundance (concentration: 0.1mM)	NP40-soluble protein abundance (concentration: 0.5mM)	NP40-soluble protein abundance (concentration: 1mM)	NP40-soluble protein abundance (concentration: 2mM)	NP40-soluble protein abundance (concentration: 4mM)	NP40-soluble protein abundance (concentration: 6mM)	NP40-soluble protein abundance (concentration: 8mM)	NP40-soluble protein abundance (concentration: 10mM)
CWC15 (UniProt Q9P013)	0.983 ± 0.034	0.994 ± 0.024	1.06 ± 0.032	1.08 ± 0.018	1.09 ± 0.016	1.14 ± 0.052	1.25 ± 0.022	1.34 ± 0.081
UniProt Q9NYR9 and related entries	1.09 ± 0.056	1.1 ± 0.044	1.1 ± 0.047	1.11 ± 0.06	1.14 ± 0.045	1.11 ± 0.076	1.13 ± 0.071	1.09 ± 0.093
TRNAU1AP (UniProt Q9NX07)	0.976 ± 0.035	0.959 ± 0.022	0.926 ± 0.024	0.928 ± 0.026	0.928 ± 0.025	0.898 ± 0.024	0.937 ± 0.038	0.911 ± 0.027

Next part

Target	NP40-soluble protein abundance (concentration: 0.1mM)	NP40-soluble protein abundance (concentration: 0.5mM)	NP40-soluble protein abundance (concentration: 1mM)	NP40-soluble protein abundance (concentration: 2mM)	NP40-soluble protein abundance (concentration: 4mM)	NP40-soluble protein abundance (concentration: 6mM)	NP40-soluble protein abundance (concentration: 8mM)	NP40-soluble protein abundance (concentration: 10mM)
UBQLN2 (UniProt Q9UHD9)	1.01 ± 0.14	0.99 ± 0.052	1.07 ± 0.13	1.05 ± 0.051	0.99 ± 0.073	1.01 ± 0.057	0.985 ± 0.11	1 ± 0.079
LARS (UniProt Q9P2J5)	1.05 ± 0.078	1.13 ± 0.15	1.07 ± 0.18	1.17 ± 0.26	1.2 ± 0.26	1.21 ± 0.28	1.16 ± 0.24	1.09 ± 0.23
CGN (UniProt Q9P2M7)	1.06 ± 0.036	1.07 ± 0.043	1.11 ± 0.031	1.06 ± 0.064	1.08 ± 0.043	1.07 ± 0.035	1.12 ± 0.036	1.12 ± 0.071
NDUFA12 (UniProt Q9UI09)	1.04 ± 0.12	1.07 ± 0.12	1.02 ± 0.11	1.09 ± 0.18	1.11 ± 0.14	1.12 ± 0.15	1.11 ± 0.14	1.1 ± 0.2
ARMC1 (UniProt Q9NVT9)	0.884 ± 0.035	0.878 ± 0.037	0.847 ± 0.056	0.831 ± 0.04	0.827 ± 0.073	0.844 ± 0.042	0.771 ± 0.089	0.808 ± 0.069
UniProt Q9P2K8 and related entries	1.05 ± 0.034	1.08 ± 0.05	0.99 ± 0.036	1.04 ± 0.057	1.03 ± 0.069	1 ± 0.05	0.979 ± 0.028	0.969 ± 0.049
ACTR10 (UniProt Q9NZ32)	1.03 ± 0.023	1.07 ± 0.044	1.07 ± 0.028	1.1 ± 0.062	1.1 ± 0.076	1.12 ± 0.077	1.12 ± 0.12	1.08 ± 0.075
FBXO28 (UniProt Q9NVF7)	1.09 ± 0.028	1.08 ± 0.13	1.28 ± 0.18	1.31 ± 0.099	1.39 ± 0.12	1.47 ± 0.12	1.42 ± 0.28	1.61 ± 0.25
UniProt Q9P107 and related entries	1.1 ± 0.029	1.05 ± 0.031	1.075 ± 0.0081	1.09 ± 0.019	1.1 ± 0.058	1.06 ± 0.03	1.128 ± 0.0063	1.07 ± 0.0035
UniProt Q9UBD5 and related entries	0.981 ± 0.061	1.06 ± 0.076	0.957 ± 0.092	1.04 ± 0.049	0.998 ± 0.069	1.04 ± 0.04	1.02 ± 0.1	1.07 ± 0.018
UniProt Q9UKX7-2|Q9UKX7	0.972 ± 0.015	1.04 ± 0.033	1.08 ± 0.042	1.09 ± 0.033	1.09 ± 0.02	1.14 ± 0.034	1.14 ± 0.068	1.16 ± 0.083
UVRAG (UniProt Q9P2Y5)	1.015 ± 0.0045	1.087 ± 0.0022	0.995 ± 0.021	1.06 ± 0.06	0.998 ± 0.033	1 ± 0.059	0.997 ± 0.023	0.998 ± 0.045
DPP7 (UniProt Q9UHL4)	1.12 ± 0.11	1.1 ± 0.1	1.05 ± 0.073	1.06 ± 0.073	0.977 ± 0.051	1.07 ± 0.095	1.06 ± 0.092	1.04 ± 0.064
UniProt Q9NX14 and related entries	0.842 ± 0.067	0.855 ± 0.11	1.07 ± 0.023	1.01 ± 0.052	1 ± 0.054	1.07 ± 0.031	1 ± 0.059	1.12 ± 0.076
UniProt Q9UEE5	1.2 ± 0.22	1.11 ± 0.054	1.107 ± 0.0057	1.12 ± 0.11	1.035 ± 0.0085	0.969 ± 0.059	0.9349 ± 0.0081	1.04 ± 0.047
PFDN2 (UniProt Q9UHV9)	0.943 ± 0.029	0.946 ± 0.0096	1.06 ± 0.043	1.03 ± 0.017	0.996 ± 0.1	1.04 ± 0.057	1.04 ± 0.06	1.17 ± 0.044
AKAP11 (UniProt Q9UKA4)	0.999 ± 0.17	0.999 ± 0.08	1.09 ± 0.14	1.03 ± 0.079	1.11 ± 0.18	1.09 ± 0.061	1.04 ± 0.14	1.02 ± 0.069
GTF3C4 (UniProt Q9UKN8)	1.05 ± 0.014	1.05 ± 0.043	1.05 ± 0.034	1.06 ± 0.057	1.06 ± 0.055	1.05 ± 0.056	1.03 ± 0.011	1.04 ± 0.054
PEF1 (UniProt Q9UBV8)	0.946 ± 0.077	0.888 ± 0.036	0.995 ± 0.1	0.994 ± 0.043	1.03 ± 0.076	0.993 ± 0.063	0.891 ± 0.084	1.02 ± 0.14
UniProt Q9NXR1 and related entries	1.03 ± 0.082	1.02 ± 0.081	1.13 ± 0.1	1.09 ± 0.017	0.995 ± 0.031	1.06 ± 0.095	1.07 ± 0.15	1.11 ± 0.11
RBM27 (UniProt Q9P2N5)	1.09 ± 0.031	1.24 ± 0.077	1.4 ± 0.1	1.45 ± 0.1	1.54 ± 0.13	1.5 ± 0.089	1.62 ± 0.19	1.6 ± 0.18
KCMF1 (UniProt Q9P0J7)	1.05 ± 0.23	1.19 ± 0.2	1.22 ± 0.28	1.29 ± 0.34	1.36 ± 0.28	1.31 ± 0.33	1.33 ± 0.34	1.36 ± 0.38
RAB21 (UniProt Q9UL25)	0.998 ± 0.058	0.967 ± 0.036	0.87 ± 0.016	0.862 ± 0.011	0.837 ± 0.029	0.84 ± 0.039	0.812 ± 0.048	0.813 ± 0.093
TMOD2 (UniProt Q9NZR1)	0.918 ± 0.13	0.867 ± 0.091	1.1 ± 0.13	1.07 ± 0.12	1.06 ± 0.13	1.09 ± 0.088	1.06 ± 0.1	1.13 ± 0.21
